# Reference: the supplement of paper PMC4604168 (melanoma cell lines)
# Some of the results follow. Repeats are few or missing, and single values can be far off.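 Imaging used 1,536-well plates; nuclei positive for cleaved PARP by antibody were divided by total DNA-stained nuclei to yield the apoptosis fraction. Doses for screening kept most cells viable, and cell lines differ markedly in resting and induced cleaved-PARP levels.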
# System: COLO792
# Experiment: cleaved PARP positive nuclei fraction relative to DMSO control; melanoma cells; higher = more apoptosis
# Conditions: library dose: low library concentration; 72 h
row,Structure (SMILES),cleaved PARP positive nuclei fraction
1,"Cc1cc(Nc2cc(N3CCN(C)CC3)nc(Sc3ccc(NC(=O)C4CC4)cc3)n2)n[nH]1 [Tozasertib] + N#Cc1c(O)c2c(-c3ccc(-c4ccccc4O)cc3)csc2[nH]c1=O [A769662] (first compound 0.006 µM, partner dose 2 µM)",83.4%
2,"O=C(Nc1cc(C(F)(F)F)cc(C(F)(F)F)c1)c1cc(Cl)ccc1O + COc1ccc(COc2ccc(Cc3cnc(N)nc3N)cc2OC)cc1 [GW2580] (first compound 0.016 µM, partner dose 1 µM)",81.5%
3,"O=C(/C=C/c1cccnc1)NCCCCC1CCN(C(=O)c2ccccc2)CC1 + COc1cc(N2CCC(N3CCN(C)CC3)CC2)ccc1Nc1ncc(Cl)c(Nc2ccccc2S(=O)(=O)C(C)C)n1 [NVP-TAE684] (first compound 0.01 µM, partner dose 0.08 µM)",409%
4,"N#CC[C@H](C1CCCC1)n1cc(-c2ncnc3[nH]ccc23)cn1 [ruxolitinib] + Cn1cc(/C=C2\C(=O)Nc3cccnc32)c2ccccc21 [GW441756] (first compound 1 µM, partner dose 0.4 µM)",92.8%
5,"CCCCCCCCCCCCCCCCCCOP(=O)([O-])OC1CC[N+](C)(C)CC1 [Perifosine] + Oc1nc(-c2ccc(C(F)(F)F)cc2)nc2c1CSCC2 [XAV939] (first compound 0.4 µM, partner dose 2 µM)",114%
6,"O=C(/C=C/c1cccnc1)NCCCCC1CCN(C(=O)c2ccccc2)CC1 + Oc1nc(-c2ccc(C(F)(F)F)cc2)nc2c1CSCC2 [XAV939] (first compound 0.01 µM, partner dose 2 µM)",231%
